Laboratory results: publication PMC12044415 (RSC Advances, 2025)

How the values were obtained:
[1] = tested on: MDA-MB-231 (triple-negative breast cancer); assay: Cell viability assay; assay type: cell-based, human; settings: read-out: IC50 MDA-MB-231; 96 h of incubation
Procedure, shortened: (§1)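 Cells cultured per supplier at 37 °C, 5% CO2, and seeded at 1.5 × 10^3 per well. Treated with six concentrations of test compound (0.001, 0.01, 0.1, 1, 10 and 100 μM final), diluted into culture medium from a 10 mM DMSO stock; cisplatin stock in water. Viability read by CellTiter-Glo after 96 h. IC50 from triplicates, error bars as standard deviations.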

[2] = tested on: A2780 (cisplatin-sensitive ovarian cancer cells); assay: Cell viability assay; assay type: cell-based, human; settings: read-out: IC50 A2780; 96 h of incubation
Procedure, shortened: as §1

N.N.[Cl][Pt][Cl] [Cisplatin, cisplatin] gave an IC50 [1] of 10 ± 1 µM and an IC50 [2] of 2.7 ± 0.3 µM.
